Results are given in words; binding and its absence hold for the method and conditions named. Some entries that bind do so weakly or less than the wild type.
Key:
[1] = target: cell surface CD22 on Ramos (CD22+) cells (human) (UniProt P20273); experiment: flow cytometry on Ramos cells
[2] = target: CD22 Protein (His Tag), Sino Biological Cat. No. 11958-H08H (UniProt P20273); experiment: BLI, IgG on anti-human Fc sensor, 50 nM CD22
[3] = target: CD22 (Acro Biosystems, Cat #CD2-H52H8) (UniProt P20273); experiment: BLI, IgG on anti-human Fc sensor, 50 nM CD22

Protein sequences, listed by entry. Tags and fused reporters are not part of them. Lines headed by an entry give the natural chain unless they say otherwise; changes in a name come on top. Residues count along the entry.
UniProt P20273: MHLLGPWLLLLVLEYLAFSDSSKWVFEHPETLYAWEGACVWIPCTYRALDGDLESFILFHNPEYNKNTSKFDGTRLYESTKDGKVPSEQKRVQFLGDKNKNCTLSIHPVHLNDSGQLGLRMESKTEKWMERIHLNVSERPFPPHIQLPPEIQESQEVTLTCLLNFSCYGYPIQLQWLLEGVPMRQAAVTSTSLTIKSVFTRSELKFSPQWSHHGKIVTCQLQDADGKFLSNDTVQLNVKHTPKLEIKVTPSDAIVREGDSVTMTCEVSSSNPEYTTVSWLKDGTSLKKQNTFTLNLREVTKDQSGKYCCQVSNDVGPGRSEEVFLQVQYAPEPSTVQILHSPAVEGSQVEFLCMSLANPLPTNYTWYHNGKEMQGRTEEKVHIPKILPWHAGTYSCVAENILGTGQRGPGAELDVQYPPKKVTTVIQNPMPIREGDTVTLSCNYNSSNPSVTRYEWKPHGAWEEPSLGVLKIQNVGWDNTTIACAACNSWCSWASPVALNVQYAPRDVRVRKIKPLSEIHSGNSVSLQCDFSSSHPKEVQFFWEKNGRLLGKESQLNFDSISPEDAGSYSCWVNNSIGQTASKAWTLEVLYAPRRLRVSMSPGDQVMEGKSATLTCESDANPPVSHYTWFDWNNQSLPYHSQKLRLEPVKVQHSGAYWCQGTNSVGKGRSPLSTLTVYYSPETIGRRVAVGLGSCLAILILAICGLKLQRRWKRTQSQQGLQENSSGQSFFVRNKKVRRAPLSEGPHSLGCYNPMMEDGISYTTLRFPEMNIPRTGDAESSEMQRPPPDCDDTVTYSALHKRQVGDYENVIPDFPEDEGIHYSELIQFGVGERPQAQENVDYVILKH
cell surface CD22 on Ramos (CD22+) cells: residues 20-847 of P20273
CD22 (Acro Biosystems, Cat #CD2-H52H8): residues 20-687 of P20273

Row | Binder | binding [1] | binding [2] | binding [3]
1 | MYT4405 (antibody, V domains shown) VH: EVQLVQSGAEVKKPGASVKVSCKASGYRFTHYWIHWVRQAPGQGLEWIGGINPGNNYATYRRKFQGRVTMTADTSTSTVYMELSSLRSEDTAVYYCTREGYGHYGAWFAYWGQGTLVTVSS VL: DVQVTQSPSSLSASVGDRVTITCRSSQSLANSYGNTFLSWYLHKPGKAPQLLIYGISNRFSGVPDRFSGSGSGTDFTLTISSLQPEDFATYYCLQGTHQPYTFGQGTKVEIK | binds | binds | –
2 | MYT4424 (antibody, V domains shown) VH: EVQLVQSGAEVKKPGASVKVSCKASGYRFTHYWIHWVRQAPGQGLEWIGGINPGNNYAHYRRKFQGRVTMTADTSTSTVYMELSSLRSEDTAVYYCTREGYGHYGAWFAYWGQGTLVTVSS VL: DVQVTQSPSSLSASVGDRVTITCRSSQSLANSYGNTFLSWYLHKPGKAPQLLIYGISNRFSGVPDRFSGSGSGTDFTLTISSLQPEDFATYYCLQGTHQPYTFGQGTKVEIK | binds | binds | –
3 | MYT1331 (antibody, V domains shown) VH: EVQLVESGGGLVQPGGSLRLSCAASGYEFSRSWMNWVRQAPGKGLEWVGRIYPGDGDTNYSGKFKGRFTISADTSKNTAYLQMNSLRAEDTAVYYCARDGSSWDWYHDVWGQGTLVTVSS VL: DIQMTQSPSSLSASVGDRVTITCRSSQSIVHSVGNTFLEWYQQKPGKAPKLLIYKVSNRFSGVPSRFSGSGSGTDFTLTISSLQPEDFATYYCFQGSQFPYTFGQGTKVEIK | binds | binds | binds

Reference: patent publication US20220288219A1
